These are yes or no findings as the source states them, for the method shown. Binding calls can cover weak binding; strength is not graded here.
What was measured:
[1] = target: West Nile virus strain USA99b (strain 385-99) (West Nile virus strain 385-99 (USA99b)); test: SPR (BIAcore 3000) affinity ranking: inactivated WNV captured on immobilised CR4283, 1000 nM antibody injected; response after association and after 370 s of dissociation, average of two measurements
[2] = target: West Nile virus strain USA99b (strain 385-99) (West Nile virus strain 385-99 (USA99b)); test: Western blot or immunoprecipitation of inactivated WNV; E protein recognized
[3] = target: West Nile virus strain USA99b (strain 385-99) (West Nile virus strain 385-99 (USA99b)); test: phage ELISA, coated whole inactivated WNV

Binder	binding [1]	binding [2]	binding [3]
CR4289 (antibody, V domains shown) VH: EVQLVQSGAEVKKPGESLRISCKGSGYSFTSNWITWVRQMPGKGLEWMGRIDPSDSYTNYSPSFQGHVTISADKSISTAYLQWSSLKASDTAMYYCARDVVGVGASDYYYYMDVWGQGTTVTVSS VL: EIVLTQSPGTLSLSPGETATLSCRTSQSVSSSYLGWYQQKPGQAPRLLIYGASIRATGIPARFSGSGSGTEFTLTIDSLQSEDFAVYYCQQYNNWPPITFGQGTRLEIKR	binds	binds	
CR4299 (antibody, V domains shown) VH: QVQLVESGGGVVQPGRSLRLSCAASGFTFSGYAMHWVRQAPGKGLDWVAVISYDGSEKYSADSVKGRFTISRDNSKNTLYLQMNSLRAEDTAVYYCAKESGGPIWYKYYGVDVWGQGTTVTVSS VL: SYVLTQPPSLSAAPRQRVTISCSGSSSNIGNYGVNWYQQLPGKAPKLLIYYDDLLPSGVSDRFSGSKSGTSASLAISGLQSEDEGDYYCAAWDDTLSAWVFGGGTKLTVLG	binds	binds	
SC04-271 (scFv) scFv: EVQLVETGAEVKKPGESLRISCKGSGYTFNNYWIGWVRQMPGKGLEWMGIIYPGDSDTRYSPSVQGHVTISADKSINTAYLQWSSLKASDTAVYYCARRPGYDYGFYYFDYWGQGTLVTVSSGTGGSGGTGSGTGGSTQSALTQPRSVSGSPGQSVTISCTGTSSDVGGYNYVSWYQHHPGKAPKLMIYDVSNRPLGVSNRFSGSKSGNTASLTISGLQAEDEADYYCSSYTSSSTYVFGTGTHLTVLS			binds
SC04-283 (scFv) scFv: EVQLVQSGAEVKKSGESLKISCKGSGYTFNTYWIGWVRQMPGKGLEWMGIIYPGDSDTIYSPSFQGQVTISADKSISTAYLQWSSLKASDSAMYYCARLTFRRGYSGSDSFLPPGDFDYWGQGTLVTVSSGTGGSGGTGSGTGGSTDIQMTQSPSTLSASVGDRVTITCRASQSISSWLAWYQQKPGKAPNLLIYAASSLQSGVPSRFSGSGSGTDFTLTISSLQPDDSATYYCQQYNTYPLTFGGGTKVEIKR			binds
SC04-289 (scFv) scFv: QMQLVQSGAEVKKPGESLRISCKGSGYSFTSNWITWVRQMPGKGLEWMGRIDPSDSYTNYSPSFQGHVTISADKSISTAYLQWSSLKASDTAMYYCARDVVGVGASDYYYYMDVWGKGTTVTVSSGTGGSGGTGSGTGGSTEIVLTQSPGTLSLSPGETATLSCRTSQSVSSSYLGWYQQKPGQAPRLLIYGASIRATGIPARFSGSGSGTEFTLTIDSLQSEDFAVYYCQQYNNWPPITFGQGTRLEIKR			binds
SC04-299 (scFv) scFv: EVQLVETGGGVVQPGRSLRLSCAASGFTFSGYAMHWVRQAPGKGLDWVAVISYDGSEKYSADSVKGRFTISRDNSKNTLYLQMNSLRAEDTAVYYCAKESGGPIWYKYYGVDVWGQGTTVTVSSGTGGSGGTGSGTGGSTSYVLTQPPSLSAAPRQRVTISCSGSSSNIGNYGVNWYQQLPGKAPKLLIYYDDLLPSGVSDRFSGSKSGTSASLAISGLQSEDEGDYYCAAWDDTLSAWVFGGGTKLTVLG			binds
SC04-311 (scFv) scFv: EVQLVQSGGGVVQPGRSLRLSCVASGFTFSKDAMHWVRQAPGKGLEWVAVISYDGSDKHYADSVKGRVTISRDNSRKTLYLRMDSLRAEDTALYYCARGYNSGHYFDYWGQGTLITVSSGTGGSGGTGSGTGGSTQSVLTQPPSVSAAPGQKVTISCSGTSSNIGDNYVSWYQHLPGTAPKLLIYDNNKRPSGIPDRFSGSKSGTSATLGVTGLQTGDEADYYCGTWDSSLTAVVFGGGTKLTVLG			binds
